Data as given in PubChem BioAssay AID1259254 (NCATS, 2017)
Shown is one part, drawn at random, of about 59,000 reagents. Over the whole deposit, about 1,550 (2.6%) were called active. 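G2 share is only a proxy for re-replication; each gene was hit by three separate siRNAs, and active genes were retested.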 Raw values vary from plate to plate and are shown uncorrected. Entries without a mark were called inactive. Reagents against one gene are numbered here. Not given: the amount of reagent.

Screen: 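Finding genes that stop cells copying their DNA twice in one cycle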 (primary screen)
System: human HCT116 colorectal cancer cells
Reagents: single siRNA against human genes
Timing: 3 days
Read-out: 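Imaged Hoechst DNA stain sorts each cell into a cycle phase by DNA amount; per plate, G2 fraction set to 0% for non-targeting and 100% for GMNN siRNA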
Scale: G2 robust z-score and G2 cells, % of GMNN control: higher = more G2 cells, more excess DNA replication; raw share of cells in G2: higher = larger share of cells with G2 DNA content
Rule for the call: 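Active siRNAs have a G2 robust z of 5 or more median absolute deviations over the median, which in these data means about 38% or higher of GMNN control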

The opening 3 entries, to show the layout:
gene | reagent no. | G2 robust z-score | G2 cells, % of GMNN control | raw share of cells in G2 (%)
TRUB2 (GeneID 26995) | 1 | 0.518 | 6.61 | 6.38
TRUB2 (GeneID 26995) | 2 | -1.1 | -4.81 | 2.73
TRUB2 (GeneID 26995) | 3 | -1.08 | -4.64 | 1.79

The list itself, from the start:
gene | reagent no. | G2 robust z-score | G2 cells, % of GMNN control | raw share of cells in G2 (%)
TRUB2 (GeneID 26995) | 1 | 0.518 | 6.61 | 6.38
TRUB2 (GeneID 26995) | 2 | -1.1 | -4.81 | 2.73
TRUB2 (GeneID 26995) | 3 | -1.08 | -4.64 | 1.79
PPP1R9A (GeneID 55607) | 1 | -0.891 | -3.3 | 3.26
PPP1R9A (GeneID 55607) | 2 | 1.92 | 16.4 | 11
PPP1R9A (GeneID 55607) | 3 | -0.454 | -0.224 | 3.07
SPATA12 (GeneID 353324) | 1 | -1.12 | -4.9 | 2.3
SPATA12 (GeneID 353324) | 2 | 2.28 | 19 | 11.6
SPATA12 (GeneID 353324) | 3 | 1.9 | 16.3 | 10.8
IDH1 (GeneID 3417) | 1 | 1.82 | 15.8 | 11.7
IDH1 (GeneID 3417) | 2 | -0.256 | 1.17 | 4.63
IDH1 (GeneID 3417) | 3 | -0.83 | -2.87 | 4
NEK4 (GeneID 6787) | 1 | 3.06 | 24.5 | 13.7
NEK4 (GeneID 6787) | 2 | 2.35 | 19.5 | 12
NEK4 (GeneID 6787) | 3 | -0.158 | 1.86 | 4.68
TIGD7 (GeneID 91151) | 1 | 1.34 | 12.4 | 11.4
TIGD7 (GeneID 91151) | 2 | 0.241 | 4.67 | 6.97
TIGD7 (GeneID 91151) | 3 | -0.718 | -2.09 | 3.69
DCAF4L2 (GeneID 138009) | 1 | -0.604 | -1.28 | 3.69
DCAF4L2 (GeneID 138009) | 2 | 1.94 | 16.6 | 8.38
DCAF4L2 (GeneID 138009) | 3 | -1.03 | -4.27 | 1.03
NDUFB5 (GeneID 4711) | 1 | 0.216 | 4.49 | 4.68
NDUFB5 (GeneID 4711) | 2 | 0.331 | 5.29 | 7.41
NDUFB5 (GeneID 4711) | 3 | 0.235 | 4.62 | 7.3
USP32 (GeneID 84669) | 1 | 6.02 (active) | 45.3 | 24.7
USP32 (GeneID 84669) | 2 | -0.447 | -0.174 | 4.42
USP32 (GeneID 84669) | 3 | 1.66 | 14.7 | 9.72
HYKK (GeneID 123688) | 1 | 3.03 | 24.3 | 13.8
HYKK (GeneID 123688) | 2 | 0.0197 | 3.11 | 4.26
HYKK (GeneID 123688) | 3 | -0.676 | -1.79 | 1.3
HOXB4 (GeneID 3214) | 1 | -0.699 | -1.95 | 3.49
HOXB4 (GeneID 3214) | 2 | -0.63 | -1.46 | 4.51
HOXB4 (GeneID 3214) | 3 | 0.463 | 6.22 | 8.05
SLC25A25 (GeneID 114789) | 1 | -0.14 | 1.98 | 6.59
SLC25A25 (GeneID 114789) | 2 | 0.92 | 9.44 | 9.02
SLC25A25 (GeneID 114789) | 3 | 0.189 | 4.3 | 6.1
RPL6 (GeneID 6128) | 1 | 4.14 | 32.1 | 18.6
RPL6 (GeneID 6128) | 2 | 3.96 | 30.9 | 16.4
RPL6 (GeneID 6128) | 3 | 2.84 | 23 | 11.7
NPAS1 (GeneID 4861) | 1 | -0.2 | 1.56 | 3.71
NPAS1 (GeneID 4861) | 2 | 3.33 | 26.4 | 15.6
NPAS1 (GeneID 4861) | 3 | -1.92 | -10.6 | 1.29
FAM170B (GeneID 170370) | 1 | 0.972 | 9.81 | 7.12
FAM170B (GeneID 170370) | 2 | -0.602 | -1.27 | 2.53
FAM170B (GeneID 170370) | 3 | 1.32 | 12.3 | 6.64
HS3ST2 (GeneID 9956) | 1 | -0.119 | 2.13 | 6.01
HS3ST2 (GeneID 9956) | 2 | 2.48 | 20.4 | 13
HS3ST2 (GeneID 9956) | 3 | -0.491 | -0.485 | 3.03
DUBR (GeneID 344595) | 1 | -0.831 | -2.88 | 3
DUBR (GeneID 344595) | 2 | 1.19 | 11.3 | 8.22
DUBR (GeneID 344595) | 3 | -1.06 | -4.47 | 2.39
APOBEC3A (GeneID 200315) | 1 | 0.795 | 8.56 | 10
APOBEC3A (GeneID 200315) | 2 | -0.192 | 1.62 | 5.29
APOBEC3A (GeneID 200315) | 3 | 0.278 | 4.93 | 6.77
ADAM29 (GeneID 11086) | 1 | -1.02 | -4.2 | 4.1
ADAM29 (GeneID 11086) | 2 | -1.28 | -6.05 | 2.77
ADAM29 (GeneID 11086) | 3 | -0.586 | -1.16 | 3.48
MESP1 (GeneID 55897) | 1 | -0.561 | -0.981 | 3.96
MESP1 (GeneID 55897) | 2 | -0.635 | -1.5 | 3.74
MESP1 (GeneID 55897) | 3 | -0.0488 | 2.62 | 3.86
SLC25A24 (GeneID 29957) | 1 | -0.643 | -1.56 | 3.48
SLC25A24 (GeneID 29957) | 2 | 2.12 | 17.9 | 10.1
SLC25A24 (GeneID 29957) | 3 | 5.64 (active) | 42.7 | 25.5
EGFR (GeneID 1956) | 1 | -0.512 | -0.638 | 5.4
EGFR (GeneID 1956) | 2 | 0.552 | 6.85 | 7.72
EGFR (GeneID 1956) | 3 | -0.294 | 0.9 | 4.34
TRIM31 (GeneID 11074) | 1 | 0.706 | 7.94 | 9.55
TRIM31 (GeneID 11074) | 2 | 1.05 | 10.3 | 7.41
TRIM31 (GeneID 11074) | 3 | -0.987 | -3.97 | 2.83
